Measured values as given in patent US20040092498A1, “Substituted glycine derivatives for use as medicaments” (priority 2002, published 2004).
For at least one compound, name, drawing or mass did not settle the structure.

System: α2δ subunit
Experiment: radioligand binding assay using [3H]gabapentin and the α2δ subunit
Details: [3H]gabapentin radioligand; α2δ subunit derived from porcine brain tissue
Source text: The biological activity of the compounds of the invention may be measured in a radioligand binding assay using [^3H]gabapentin and the α2δ subunit derived from porcine brain tissue (Gee N. S., Brown J. P., Dissanayake V. U. K., Offord J., Thurlow R., Woodruff G. N., J. Biol. Chem., 1996;271:[…]). Results may be expressed in terms of μM or nM α2δ binding affinity.

Structure (SMILES): O=C(O)CNCCSc1ccc(Br)cc1 [Example 7, ({2-[(4-Bromophnyl)sulfanyl]thyl}amino)ac tic acid]
- Activity (binding affinity): 59 nM
